PubChem BioAssay AID504784 – Drosophila RNAi Screening Center – 2011
Screen: 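Fly genes whose silencing alters how much lipid cells keep in droplets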 (primary screen). System: Drosophila Kc167 embryonic cells. Knock-down reagent: long dsRNA against Drosophila genes, about 250 ng dsRNA per well. Time to read-out: 4 days. Challenge: cells fed 400 µM oleic acid bound to BSA. Read-out: 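Microscope images give a droplet-to-nucleus area ratio, taken as log and converted to a screen-wide B-score; higher values mean greater lipid storage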. Reading the numbers: droplet/nuclear area B-score: higher = more stored lipid (overstorage).
The deposit covers about 17,000 reagents; this is a random part of those with a known target gene and a result. 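Each column is one replicate's B-score; the combined score over replicates was not deposited, so single values may mislead.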 Names joined by + are all predicted targets of the reagent. Reagent sequences are not shown.

no.	predicted target	dsRNA	droplet/nuclear area B-score, replicate 1	droplet/nuclear area B-score, replicate 2	droplet/nuclear area B-score, replicate 3
1	Miga (GeneID 31775)	DRSC17821	-0.489	0.55	
2	Smox (GeneID 31738)	DRSC18716	0.501	3.33	
3	CG17177 (GeneID 39601)	DRSC10257	-1.57	-0.7	
4	plu (GeneID 44848)	DRSC07665	-0.882	0.103	
5	CG14089 (GeneID 40101)	DRSC10093	0.0347	-0.0922	
6	Gel (GeneID 46008)	DRSC12350	-1.06	-0.613	-0.445
7	scra (GeneID 35696)	DRSC07679	0.34		
8	mRpL15 (GeneID 40261)	DRSC11771	2.54	3.01	0.375
9	Prp38 (GeneID 35934)	DRSC07060	0.655	0.681	
10	CR31541 (retired record) (GeneID 3772590)	DRSC21876	-0.148	-1.69	
11	CG32161 (GeneID 317890)	DRSC22128	-0.023	-1.06	
12	Art8 (GeneID 34528)	DRSC02530	-0.177	-0.129	
13	CG33189 (GeneID 326328)	DRSC21427	1.06	1.12	
14	CG8833 (GeneID 39535)	DRSC11050	-1.8	1.36	0.749
15	Ada3 (GeneID 32787)	DRSC20321	-0.152	-0.172	
16	Ada3 (GeneID 32787)	DRSC20322	-1.05	-0.554	
17	Fa2h (GeneID 35670)	DRSC06608	1.8	-0.775	
18	Fa2h (GeneID 35670)	DRSC06609	-0.821	0.562	
19	Qsox1 (GeneID 36464)	DRSC06878	-0.798	0.927	-3.17
20	CG8560 (GeneID 38830)	DRSC10994	1.39	-1.25	
21	CG31347 (GeneID 318693)	DRSC21582	0.749	2.15	
22	Prosalpha2 (GeneID 41531)	DRSC16798	1.09	-0.673	
23	Helz (GeneID 39613)	DRSC11072	-0.351	2.07	-1.63
24	CG11018 (GeneID 37259)	DRSC06024	-1.57	-6.45	
25	Ucp4C (GeneID 33832)	DRSC03132	1.54	0.00773	
26	CR31032 (GeneID 5740822)	DRSC22457	0.707	-1.11	
27	CG12898 (GeneID 36096)	DRSC06213	1.13	0.182	
28	CG32219 (GeneID 317922)	DRSC09641	2.94	2.2	
29	CG7886 (GeneID 41775)	DRSC16333	0.402	0.0251	
30	Ugt35B1 (GeneID 41333)	DRSC16893	-0.0218	-0.00671	
31	udt (GeneID 42809)	DRSC14214	-2.09	-0.683	
32	eIF3d2 (GeneID 41475)	DRSC15651	0.166	-1.33	
33	mu2 (GeneID 38257)	DRSC08726	-1.61	0.648	
34	mu2 (GeneID 38257)	DRSC21534	-1.01	1.07	
35	CG30471 (GeneID 246633)	DRSC07096	1.54		
36	CG30046 (GeneID 36334)	DRSC06691	0.119	0.454	
37	Lkb1 (GeneID 41673)	DRSC16481	-3.18	1.64	
38	CG32313 (GeneID 317973)	DRSC21450	-0.00418	1.13	
39	CG10887 (GeneID 42399)	DRSC14277	2.38	0.503	-0.221
40	sesB (GeneID 32007)	DRSC20371	3.47	3.62	0.918
41	nvy (GeneID 37886)	DRSC04705	-0.081	-0.129	0.0515
42	chif (GeneID 34974)	DRSC03508	0.383	2.51	
43	CG5541 (GeneID 2768877)	DRSC19946	0.0935	1.33	0.504
44	Ugt36F1 (GeneID 35137)	DRSC02601	1.03	0.481	
45	CG9743 (GeneID 43593)	DRSC16552	1.72	0.254	
46	CG13947 (GeneID 33250)	DRSC00365	-1.66	-0.0752	
47	CG31988 (GeneID 326182)	DRSC22491	0.188	-0.637	
48	Ugt305A1 (GeneID 59217)	DRSC08541	-0.247	0.144	
49	CG17917 (GeneID 40778)	DRSC12570	1.53	0.936	
50	CG14221 (GeneID 32961)	DRSC19578	0.348	0.379	
51	Nlg2 (GeneID 33962)	DRSC03578	-2.2	-0.789	
52	Top1 (GeneID 32458)	DRSC20295	-0.572	-3.46	
53	CG13699 (GeneID 40008)	DRSC10048	1.63	3.22	
54	Cpr47Ea (GeneID 36188)	DRSC07333	-3.72	-0.918	
55	CG17140 + CG17139	DRSC02585	-0.452	0.0266	
56	CG17140 + CG17139	DRSC02586	-0.198	-0.338	

Taken from above:
CR31541 (retired record) (GeneID 3772590) [DRSC21876], droplet/nuclear area B-score, replicate 1 = -0.148
Result of plu (GeneID 44848) [DRSC07665] in “droplet/nuclear area B-score, replicate 2”: 0.103
CG17140 + CG17139 [DRSC02585], droplet/nuclear area B-score, replicate 1: -0.452
Under “droplet/nuclear area B-score, replicate 1”, CG30046 (GeneID 36334) [DRSC06691] shows 0.119
CG33189 (GeneID 326328) [DRSC21427], droplet/nuclear area B-score, replicate 2 → 1.12
Under “droplet/nuclear area B-score, replicate 2”, CG14089 (GeneID 40101) [DRSC10093] shows -0.0922
